Literature values as cited in US6858402B2 (The Regents of the University of California, priority 1996, dated 2005).
At least one structure is not confirmed: it was looked up by name or label, or the drawing left a doubt.

Tested on: sTNF-R
Details: Seitz et al. (1997); cited from earlier work

For `C[C@@H]1C[C@H]2[C@@H]3CCC4=CC(=O)C=C[C@]4(C)[C@@]3(F)[C@@H](O)C[C@]2(C)[C@@]1(O)C(=O)CO` [dexamethasone], which sTNF-R shedding is on record?
The sTNF-R shedding was “not affected”.
